In the supplement of paper PMC10849652:
The list shows a part of the results.

Protein sequences, listed by entry. Tags and fused reporters are not part of them. Lines headed by an entry give the natural chain unless they say otherwise; changes in a name come on top.
UniProt P27449, whole entry, looked up: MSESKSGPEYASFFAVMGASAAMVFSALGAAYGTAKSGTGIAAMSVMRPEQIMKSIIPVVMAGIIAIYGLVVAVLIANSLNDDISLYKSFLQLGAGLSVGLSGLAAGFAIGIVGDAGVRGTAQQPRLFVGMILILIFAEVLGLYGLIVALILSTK
UniProt Q6ZNE5, whole entry, looked up: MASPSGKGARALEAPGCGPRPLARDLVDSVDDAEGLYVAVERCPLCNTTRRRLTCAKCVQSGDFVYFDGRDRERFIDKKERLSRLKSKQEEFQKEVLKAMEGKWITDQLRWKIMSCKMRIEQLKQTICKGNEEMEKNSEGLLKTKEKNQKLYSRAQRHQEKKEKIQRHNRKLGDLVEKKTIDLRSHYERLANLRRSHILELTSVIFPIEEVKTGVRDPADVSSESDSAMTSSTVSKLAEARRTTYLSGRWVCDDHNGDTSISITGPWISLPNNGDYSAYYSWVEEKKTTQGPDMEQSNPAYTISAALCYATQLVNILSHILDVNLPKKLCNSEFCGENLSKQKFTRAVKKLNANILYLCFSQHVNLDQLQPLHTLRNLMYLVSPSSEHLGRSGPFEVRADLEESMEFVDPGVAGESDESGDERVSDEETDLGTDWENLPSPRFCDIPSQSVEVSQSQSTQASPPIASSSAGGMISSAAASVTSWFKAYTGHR
UniProt Q2TAZ0: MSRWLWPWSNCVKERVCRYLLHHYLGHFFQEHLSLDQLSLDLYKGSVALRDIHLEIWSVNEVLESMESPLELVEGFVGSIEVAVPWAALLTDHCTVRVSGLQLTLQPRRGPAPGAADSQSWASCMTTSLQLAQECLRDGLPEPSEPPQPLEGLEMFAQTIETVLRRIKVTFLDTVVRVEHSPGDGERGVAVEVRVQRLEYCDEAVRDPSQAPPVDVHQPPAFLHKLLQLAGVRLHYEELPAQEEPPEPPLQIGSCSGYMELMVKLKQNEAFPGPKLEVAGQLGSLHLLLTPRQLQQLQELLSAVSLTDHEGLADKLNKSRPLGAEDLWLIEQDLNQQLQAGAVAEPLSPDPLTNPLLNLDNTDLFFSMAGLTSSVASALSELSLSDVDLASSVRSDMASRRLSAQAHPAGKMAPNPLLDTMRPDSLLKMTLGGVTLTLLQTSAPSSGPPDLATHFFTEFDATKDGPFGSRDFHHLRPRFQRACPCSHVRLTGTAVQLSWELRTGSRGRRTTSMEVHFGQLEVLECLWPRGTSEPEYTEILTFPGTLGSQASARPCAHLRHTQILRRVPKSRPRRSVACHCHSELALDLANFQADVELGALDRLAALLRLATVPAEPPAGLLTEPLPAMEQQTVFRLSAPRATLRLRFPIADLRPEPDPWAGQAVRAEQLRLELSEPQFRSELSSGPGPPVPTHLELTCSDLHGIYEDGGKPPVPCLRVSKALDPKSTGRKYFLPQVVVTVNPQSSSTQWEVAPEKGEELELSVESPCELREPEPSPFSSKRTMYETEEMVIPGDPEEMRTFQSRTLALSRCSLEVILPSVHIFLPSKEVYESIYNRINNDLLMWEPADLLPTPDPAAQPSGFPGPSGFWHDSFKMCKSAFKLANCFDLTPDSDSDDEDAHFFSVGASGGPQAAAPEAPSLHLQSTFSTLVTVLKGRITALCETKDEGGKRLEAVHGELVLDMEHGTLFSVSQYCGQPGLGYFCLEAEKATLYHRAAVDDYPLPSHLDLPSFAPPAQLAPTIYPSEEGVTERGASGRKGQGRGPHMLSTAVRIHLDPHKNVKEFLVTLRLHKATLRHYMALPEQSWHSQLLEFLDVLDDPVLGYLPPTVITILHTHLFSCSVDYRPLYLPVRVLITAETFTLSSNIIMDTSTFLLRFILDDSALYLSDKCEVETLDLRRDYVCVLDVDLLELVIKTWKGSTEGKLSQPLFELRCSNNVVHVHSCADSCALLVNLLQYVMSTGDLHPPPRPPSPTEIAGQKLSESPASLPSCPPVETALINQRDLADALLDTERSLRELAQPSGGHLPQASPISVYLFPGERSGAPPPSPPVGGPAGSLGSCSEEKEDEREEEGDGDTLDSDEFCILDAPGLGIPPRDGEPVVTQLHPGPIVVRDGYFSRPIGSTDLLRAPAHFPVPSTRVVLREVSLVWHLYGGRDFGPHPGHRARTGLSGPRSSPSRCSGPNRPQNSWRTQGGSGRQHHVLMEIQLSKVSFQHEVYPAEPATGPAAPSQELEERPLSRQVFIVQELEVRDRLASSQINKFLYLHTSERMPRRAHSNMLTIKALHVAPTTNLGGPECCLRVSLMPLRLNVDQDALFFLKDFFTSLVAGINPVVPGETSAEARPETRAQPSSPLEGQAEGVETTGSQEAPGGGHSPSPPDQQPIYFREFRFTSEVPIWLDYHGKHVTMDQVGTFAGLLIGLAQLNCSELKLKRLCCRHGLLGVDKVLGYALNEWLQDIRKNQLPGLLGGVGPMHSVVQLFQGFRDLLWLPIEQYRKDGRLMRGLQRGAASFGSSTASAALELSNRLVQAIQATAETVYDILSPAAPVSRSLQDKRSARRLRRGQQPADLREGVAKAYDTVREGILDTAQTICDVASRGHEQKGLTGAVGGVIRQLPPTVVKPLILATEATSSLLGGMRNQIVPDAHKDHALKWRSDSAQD
UniProt P56381: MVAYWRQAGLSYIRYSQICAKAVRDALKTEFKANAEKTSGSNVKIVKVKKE
UniProt O75348, whole entry, looked up: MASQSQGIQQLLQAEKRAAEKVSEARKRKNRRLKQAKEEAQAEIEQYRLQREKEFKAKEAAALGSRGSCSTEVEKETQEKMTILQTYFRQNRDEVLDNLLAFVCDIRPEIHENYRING
UniProt P98194: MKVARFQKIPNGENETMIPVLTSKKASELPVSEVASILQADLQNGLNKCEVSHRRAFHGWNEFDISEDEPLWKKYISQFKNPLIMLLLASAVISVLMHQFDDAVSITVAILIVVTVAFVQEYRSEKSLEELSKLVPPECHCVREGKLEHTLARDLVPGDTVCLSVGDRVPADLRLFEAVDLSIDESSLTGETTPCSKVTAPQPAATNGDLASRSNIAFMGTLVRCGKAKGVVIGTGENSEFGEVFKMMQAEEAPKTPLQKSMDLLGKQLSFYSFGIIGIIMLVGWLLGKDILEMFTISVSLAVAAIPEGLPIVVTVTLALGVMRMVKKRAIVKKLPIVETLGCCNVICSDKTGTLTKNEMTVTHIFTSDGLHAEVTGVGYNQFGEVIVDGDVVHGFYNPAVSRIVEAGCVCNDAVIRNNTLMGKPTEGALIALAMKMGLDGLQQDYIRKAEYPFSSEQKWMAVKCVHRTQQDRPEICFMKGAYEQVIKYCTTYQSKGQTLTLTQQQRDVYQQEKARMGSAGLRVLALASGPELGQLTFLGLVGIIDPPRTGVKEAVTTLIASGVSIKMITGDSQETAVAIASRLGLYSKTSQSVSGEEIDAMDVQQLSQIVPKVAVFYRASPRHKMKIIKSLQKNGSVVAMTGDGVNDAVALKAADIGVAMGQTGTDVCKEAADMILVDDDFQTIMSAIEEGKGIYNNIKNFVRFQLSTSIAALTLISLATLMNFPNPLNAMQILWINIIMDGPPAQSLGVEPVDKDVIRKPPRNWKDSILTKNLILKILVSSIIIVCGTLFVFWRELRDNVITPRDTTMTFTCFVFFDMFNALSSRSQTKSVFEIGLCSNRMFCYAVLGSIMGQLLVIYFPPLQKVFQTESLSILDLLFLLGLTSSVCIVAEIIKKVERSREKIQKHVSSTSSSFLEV
UniProt Q01814: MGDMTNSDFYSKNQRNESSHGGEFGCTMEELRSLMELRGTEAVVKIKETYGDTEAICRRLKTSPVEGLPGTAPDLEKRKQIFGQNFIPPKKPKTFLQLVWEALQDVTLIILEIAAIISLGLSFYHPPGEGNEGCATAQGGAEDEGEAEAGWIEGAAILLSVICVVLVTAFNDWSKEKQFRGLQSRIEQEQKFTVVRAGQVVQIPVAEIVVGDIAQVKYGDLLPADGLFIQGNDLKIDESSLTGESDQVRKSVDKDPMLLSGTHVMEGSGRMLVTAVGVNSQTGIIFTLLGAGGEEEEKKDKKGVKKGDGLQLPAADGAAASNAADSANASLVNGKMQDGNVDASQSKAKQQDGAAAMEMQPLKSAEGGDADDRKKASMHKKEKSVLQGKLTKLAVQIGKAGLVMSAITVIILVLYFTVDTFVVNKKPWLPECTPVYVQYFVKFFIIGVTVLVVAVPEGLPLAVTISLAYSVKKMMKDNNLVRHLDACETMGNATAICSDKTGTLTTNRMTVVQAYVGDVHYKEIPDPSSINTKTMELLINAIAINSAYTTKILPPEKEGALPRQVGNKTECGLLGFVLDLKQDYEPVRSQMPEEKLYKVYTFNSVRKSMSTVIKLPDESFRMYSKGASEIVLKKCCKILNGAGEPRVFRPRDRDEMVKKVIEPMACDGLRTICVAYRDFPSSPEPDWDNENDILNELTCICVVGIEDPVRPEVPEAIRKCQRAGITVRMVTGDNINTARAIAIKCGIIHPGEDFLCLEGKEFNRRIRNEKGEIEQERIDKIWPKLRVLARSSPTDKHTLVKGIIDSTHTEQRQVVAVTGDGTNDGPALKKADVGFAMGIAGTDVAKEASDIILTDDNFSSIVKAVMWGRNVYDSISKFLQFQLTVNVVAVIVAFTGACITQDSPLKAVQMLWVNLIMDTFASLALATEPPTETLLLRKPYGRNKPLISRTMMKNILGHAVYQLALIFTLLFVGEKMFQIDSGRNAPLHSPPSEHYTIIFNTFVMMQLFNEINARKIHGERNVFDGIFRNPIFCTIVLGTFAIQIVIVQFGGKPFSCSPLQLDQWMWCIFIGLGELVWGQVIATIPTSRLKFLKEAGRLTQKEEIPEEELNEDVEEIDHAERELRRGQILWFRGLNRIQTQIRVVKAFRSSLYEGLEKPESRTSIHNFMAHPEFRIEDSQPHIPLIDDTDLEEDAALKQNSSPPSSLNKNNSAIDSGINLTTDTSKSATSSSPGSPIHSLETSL
UniProt Q9NWL6: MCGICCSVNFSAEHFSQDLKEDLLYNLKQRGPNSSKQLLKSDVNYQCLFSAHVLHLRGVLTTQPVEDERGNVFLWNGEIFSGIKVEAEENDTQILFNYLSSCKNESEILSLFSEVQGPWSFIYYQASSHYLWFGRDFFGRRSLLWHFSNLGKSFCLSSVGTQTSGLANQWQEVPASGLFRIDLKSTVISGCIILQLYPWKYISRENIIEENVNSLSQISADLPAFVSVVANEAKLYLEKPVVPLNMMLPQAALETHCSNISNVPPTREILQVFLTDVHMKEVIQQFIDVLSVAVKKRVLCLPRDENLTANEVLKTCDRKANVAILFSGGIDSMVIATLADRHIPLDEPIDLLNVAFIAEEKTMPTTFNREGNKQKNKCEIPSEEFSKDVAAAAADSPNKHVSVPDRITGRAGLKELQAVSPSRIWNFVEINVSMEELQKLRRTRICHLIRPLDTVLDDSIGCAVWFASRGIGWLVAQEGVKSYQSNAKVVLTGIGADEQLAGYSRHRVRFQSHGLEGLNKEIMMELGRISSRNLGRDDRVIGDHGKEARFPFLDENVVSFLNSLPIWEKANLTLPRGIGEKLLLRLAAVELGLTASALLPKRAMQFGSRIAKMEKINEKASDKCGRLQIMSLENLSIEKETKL
UniProt Q8WYN0: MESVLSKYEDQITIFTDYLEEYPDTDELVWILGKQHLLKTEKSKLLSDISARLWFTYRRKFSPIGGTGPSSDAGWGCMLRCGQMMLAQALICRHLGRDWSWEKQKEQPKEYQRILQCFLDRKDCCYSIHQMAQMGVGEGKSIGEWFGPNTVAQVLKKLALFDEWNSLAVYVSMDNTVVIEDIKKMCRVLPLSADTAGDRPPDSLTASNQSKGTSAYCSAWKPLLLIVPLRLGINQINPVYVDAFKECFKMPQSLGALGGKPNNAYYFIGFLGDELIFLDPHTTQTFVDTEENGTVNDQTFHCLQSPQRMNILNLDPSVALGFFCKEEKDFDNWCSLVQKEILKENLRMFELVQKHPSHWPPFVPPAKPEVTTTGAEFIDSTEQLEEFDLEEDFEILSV
UniProt O75143: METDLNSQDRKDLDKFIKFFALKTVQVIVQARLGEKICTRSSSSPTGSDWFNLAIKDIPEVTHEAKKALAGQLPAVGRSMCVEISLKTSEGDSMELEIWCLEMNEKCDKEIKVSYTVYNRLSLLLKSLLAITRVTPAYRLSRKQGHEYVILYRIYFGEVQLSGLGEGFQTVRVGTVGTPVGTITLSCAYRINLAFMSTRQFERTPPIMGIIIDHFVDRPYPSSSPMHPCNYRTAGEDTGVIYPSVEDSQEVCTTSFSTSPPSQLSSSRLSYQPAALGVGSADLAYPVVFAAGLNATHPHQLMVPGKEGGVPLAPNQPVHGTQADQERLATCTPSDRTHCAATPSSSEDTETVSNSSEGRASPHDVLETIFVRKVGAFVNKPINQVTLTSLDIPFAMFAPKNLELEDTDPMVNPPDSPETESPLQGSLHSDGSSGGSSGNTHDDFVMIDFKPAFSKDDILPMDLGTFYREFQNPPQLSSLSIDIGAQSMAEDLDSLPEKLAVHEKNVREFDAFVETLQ
UniProt O75964: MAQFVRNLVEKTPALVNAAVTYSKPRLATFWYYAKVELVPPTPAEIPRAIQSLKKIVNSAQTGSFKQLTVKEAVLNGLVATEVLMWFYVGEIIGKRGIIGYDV

Experiments:
Assay in all cases: log2 fold change, soluble protein after heating vs DMSO (PISA); higher = thermal stabilisation; K562 cells, 10 uM, 30 min; active = over 0.2 and 3.5 SD of the protein, either way, in both replicates (recomputed)
[1] = compound: NC(=O)Nc1cc(-c2cccc(F)c2)sc1C(=O)N[C@H]1CCCNC1
In short: (§1)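 K562 cells at 2×10^6 cells/mL were given 10 μM compound for 30 min. Aliquots then went through 3 min of heating across 48°C-58°C, were pooled, and were extracted in PBS with 0.5% NP-40 at 4°C, and the supernatant after 21,000xg for 90 min was quantified by TMTpro 16plex LC-MS/MS with channel sums equalised. Thermal stability relative to control samples, from duplicates, is given as log2 fold change.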

[2] = compound: NC1(c2ccc(-c3nc4ccn5c(=O)[nH]nc5c4cc3-c3ccccc3)cc2)CCC1
In short: as §1

[3] = compound: NCC(=O)Nc1ccc(-n2nc(C(F)(F)F)cc2-c2ccc3c(ccc4ccccc43)c2)cc1
In short: as §1

entinostat = compound: Nc1ccccc1NC(=O)c1ccc(CNC(=O)OCc2cccnc2)cc1 [entinostat]
In short: as §1

vorinostat = compound: O=C(CCCCCCC(=O)Nc1ccccc1)NO [vorinostat]
In short: as §1

citarinostat = compound: O=C(CCCCCCNC(=O)c1cnc(N(c2ccccc2)c2ccccc2Cl)nc1)NO [citarinostat]
In short: as §1

silmitasertib = compound: O=C(O)c1ccc2c(c1)nc(Nc1cccc(Cl)c1)c1ccncc12 [silmitasertib]
In short: as §1

[4] = compound: O=C1NC(=O)C(c2cnc3ccccn23)=C1c1cn2c3c(cc(F)cc13)CN(C(=O)N1CCCCC1)CC2
In short: as §1

[5] = compound: c1cc(OCCN2CCCCC2)cc(-c2n[nH]c3ccc(-c4nnc[nH]4)cc23)c1
In short: as §1

[6] = compound: NC(=O)c1cnc(N[C@@H]2CCCC[C@@H]2N)nc1Nc1cccc(-n2nccn2)c1
In short: as §1

Measured: log2 fold change

ATG4C (UniProt Q96DT6)
inactive: [1] 0.01 | [2] -0.084 | [3] 0.03 | entinostat 0.075 | vorinostat 0.159 | citarinostat -0.003 | silmitasertib 0.157 | [4] -0.018 | [5] 0.224

ARMC8 isoform 6 (UniProt Q8IUR7)
inactive: [6] -0.023 | [3] 0.025

ATP6V0C (UniProt P27449)
inactive: [1] 0.117 | [6] -0.174 | [2] -0.092 | [3] -0.038 | entinostat 0.162 | vorinostat 0.205 | silmitasertib -0.01 | [4] 0.308

ARL8B (UniProt Q9NVJ2)
inactive: [1] -0.011 | [6] -0.015 | [2] -0.165 | [3] -0.018 | entinostat -0.023 | vorinostat -0.008 | citarinostat 0.055 | silmitasertib -0.008 | [4] -0.008 | [5] -0.026

ATAD1 (UniProt Q8NBU5)
inactive: [1] -0.036 | [6] -0.056 | [2] -0.015 | [3] -0.009 | entinostat 0.038 | vorinostat 0.012 | citarinostat 0.032 | silmitasertib 0.012 | [4] 0.197 | [5] -0.053

ATG14 (UniProt Q6ZNE5)
inactive: [1] -0.078 | [6] 0.131 | entinostat 0.046 | citarinostat 0.005 | [5] -0.071

ATE1 (UniProt O95260)
inactive: [6] -0.084 | [3] -0.066 | citarinostat -0.069 | [4] -0.148 | [5] 0.225

ATG2A (UniProt Q2TAZ0)
inactive: vorinostat 0.042 | [4] -0.092

ARPIN isoform 2 (UniProt Q7Z6K5)
inactive: [6] 0.031 | [2] -0.213 | [3] 0 | vorinostat 0.053 | silmitasertib -0.015

ATP5F1E (UniProt P56381)
inactive: [1] 0.015 | [6] -0.013 | [2] -0.008 | [3] 0.005 | entinostat 0.003 | vorinostat -0.056 | citarinostat 0.022 | silmitasertib -0.006 | [4] -0.025 | [5] -0.01

ARL5A (UniProt Q9Y689)
inactive: [1] -0.231 | [6] -0.091 | [2] -0.113 | entinostat -0.048 | vorinostat 0.026 | citarinostat 0.155 | silmitasertib -0.009 | [4] 0.038 | [5] -0.213

ARRB1 isoform 2 (UniProt P49407)
inactive: [6] 0.068 | [2] 0.024 | [3] -0.079 | vorinostat -0.027 | citarinostat 0.007 | silmitasertib 0.058 | [5] 0.008

ASF1B (UniProt Q9NVP2)
inactive: [1] -0.954 | [6] -0.174 | [2] -0.178 | [3] -0.078 | entinostat 0.036 | vorinostat 0.002 | silmitasertib -0.114 | [4] -0.18

ATP6V1G1 (UniProt O75348)
inactive: [1] -0.03 | [6] -0.075 | [2] -0.111 | [3] -0.069 | entinostat -0.045 | vorinostat -0.056 | citarinostat -0.041 | silmitasertib -0.037 | [4] -0.091 | [5] -0.018

ATF7IP isoform 4 (UniProt Q6VMQ6)
inactive: [6] -0.1 | [2] -0.282 | [3] -0.002 | vorinostat -0.07 | silmitasertib 0 | [4] 0.136

ATF6 (UniProt P18850)
inactive: [1] -0.075 | entinostat -0.013

ATP2C1 isoform 3 (UniProt P98194)
inactive: [6] 0.061 | [2] -0.132 | silmitasertib -0.035

ARL6 isoform 2 (UniProt Q9H0F7)
inactive: [3] -0.172

ARSA (UniProt P15289)
inactive: [1] 0.055 | [6] -0.058 | [2] 0.058 | [3] 0 | entinostat -0.026 | vorinostat -0.018 | silmitasertib -0.002 | [4] -0.051

ATF1 (UniProt P18846)
inactive: [1] 0.038 | [6] 0.096 | [2] 0.063 | [3] 0.127 | entinostat 0.066 | vorinostat -0.102 | citarinostat 0.144 | silmitasertib -0.146 | [5] -0.091
active: [4] 0.372

ASCC2 (UniProt Q9H1I8)
inactive: [1] -0.12 | [2] 0.126 | [3] -0.171 | entinostat 0.063 | citarinostat 0.028 | silmitasertib 0.2 | [4] 0.107 | [5] 0.041

ARSK (UniProt Q6UWY0)
inactive: [2] -0.168 | [3] 0.053 | silmitasertib 0.078 | [4] 0.087

ATF7 isoform 6 (UniProt P17544)
inactive: [1] -0.113 | [6] 0.138 | [2] -0.123 | [3] 0.268 | entinostat -0.045 | silmitasertib 0.067 | [4] -0.044

ATG10 (UniProt Q9H0Y0)
inactive: [3] -0.035 | vorinostat 0.042 | [4] -0.009

ATP2B2 (UniProt Q01814)
inactive: [1] -0.316 | [6] 0.247 | [3] 0.036 | entinostat 0.175 | vorinostat -0.038

ATP5F1B (UniProt F8W0P7)
inactive: [1] -0.151 | [6] -0.187 | [2] -0.086 | entinostat -0.119 | silmitasertib -0.026 | [4] 0.155

ARL5B (UniProt Q96KC2)
inactive: [1] -0.032 | [6] -0.151 | [2] -0.071 | [3] -0.064 | entinostat -0.031 | vorinostat 0.182 | silmitasertib -0.003 | [4] -0.184

ATP8B2 isoform 3 (UniProt P98198)
inactive: [6] -0.004 | [3] -0.325

ASNSD1 (UniProt Q9NWL6)
inactive: [1] 0.005 | entinostat -0.052 | [4] 0.051

ATG4A (UniProt Q8WYN0)
inactive: [3] -0.058

3 consecutive records out of the list so far, quoted:
ATP2B2 (UniProt Q01814)
inactive: [1] -0.316 | [6] 0.247 | [3] 0.036 | entinostat 0.175 | vorinostat -0.038

ATP5F1B (UniProt F8W0P7)
inactive: [1] -0.151 | [6] -0.187 | [2] -0.086 | entinostat -0.119 | silmitasertib -0.026 | [4] 0.155

ARL5B (UniProt Q96KC2)
inactive: [1] -0.032 | [6] -0.151 | [2] -0.071 | [3] -0.064 | entinostat -0.031 | vorinostat 0.182 | silmitasertib -0.003 | [4] -0.184

The results go on:

ATP1B1 (UniProt P05026)
inactive: [1] 0.05 | [6] 0.117 | [2] -0.04 | [3] 0.035 | entinostat -0.134 | vorinostat -0.041 | citarinostat -0.071 | silmitasertib 0.037 | [5] 0.035

ARL8A (UniProt Q96BM9)
inactive: [1] -0.012 | [6] -0.093 | [2] 0.04 | [3] 0 | entinostat 0.087 | vorinostat -0.008 | citarinostat 0.063 | silmitasertib -0.082 | [4] -0.098 | [5] -0.03

ATG13 isoform 5 (UniProt O75143)
inactive: [1] 0.031 | [6] -0.075 | [2] -0.001 | [3] -0.061 | entinostat -0.01 | vorinostat 0.003 | citarinostat 0.03 | silmitasertib -0.028 | [4] -0.056 | [5] -0.036

ASXL2 (UniProt Q76L83)
inactive: [6] 0.062

ATP5MG (UniProt O75964)
inactive: [1] -0.001 | [6] 0.024 | [2] 0.07 | [3] 0.026 | entinostat 0.012 | vorinostat -0.138 | citarinostat -0.063 | silmitasertib -0.009 | [4] -0.131 | [5] -0.019

ATF3 (UniProt P18847)
inactive: [1] -0.2 | [6] -0.061 | [3] 0.003 | entinostat -0.018 | citarinostat 0.126 | [4] -0.03 | [5] -0.15

ATP5F1B (UniProt H0YI37)
inactive: [1] -0.445 | [3] -0.252 | entinostat -0.276 | vorinostat -0.031 | citarinostat -0.437 | [4] -0.28 | [5] -0.32
